Results deposited as PubChem BioAssay AID493246 (Drosophila RNAi Screening Center, 2011).
The screen tested about 21,000 reagents; shown is an unselected part of those with a known target gene and a result. In the full data, 429 (2%) were called active. 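Values are raw and not normalised between plates; calls rest on per-plate z-scores that were not deposited.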 Not given: the amount of reagent, the time to read-out.

- Screen: 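Genome-wide search for dsRNAs that reduce cell number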 (primary screen)
- Cells: Drosophila Kc and S2R+ cells
- Reagent: long dsRNA against Drosophila genes
- Detection: 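Cell number per well after knock-down, printed as raw plate values; calls were based on per-plate z-scores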
- Scale: Kc cell number and S2R+ cell number: higher = more cells remaining
- Hit rule: 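Active when the per-plate z-score of cell number is 3 or more in the direction of fewer cells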

Prosalpha5 [DRSC07514] scored Kc cell number, rep 1 = 5.77e5; Kc cell number, rep 2 = 6.81e5; S2R+ cell number, rep 1 = 3.18e5; S2R+ cell number, rep 2 = 4.23e5; active.
Knock-down of Pvr [DRSC03080] gave: Kc cell number, rep 1 = 4.61e5; Kc cell number, rep 2 = 5.31e5; S2R+ cell number, rep 1 = 5.39e5; S2R+ cell number, rep 2 = 6.21e5; active.
Depletion of CG15034 [DRSC17966] resulted in: Kc cell number, rep 1 = 1.54e6; Kc cell number, rep 2 = 1.61e6; S2R+ cell number, rep 1 = 1.14e6; S2R+ cell number, rep 2 = 1.24e6; inactive.
For CG42562 [DRSC06453], the entry reads Kc cell number, rep 1 = 1.74e6; Kc cell number, rep 2 = 1.83e6; S2R+ cell number, rep 1 = 1.26e6; S2R+ cell number, rep 2 = 1.42e6; inactive.
CG7213 [DRSC10787] gave Kc cell number, rep 1 = 1.60e6; Kc cell number, rep 2 = 1.50e6; S2R+ cell number, rep 1 = 1.06e6; S2R+ cell number, rep 2 = 1.12e6; inactive.

Ordered by “Kc cell number, rep 2” (descending): some entries from above.
CG15034 [DRSC17966] | Kc cell number, rep 1: 1.54e6; Kc cell number, rep 2: 1.61e6; S2R+ cell number, rep 1: 1.14e6; S2R+ cell number, rep 2: 1.24e6; Call: inactive
Pvr [DRSC03080] | Kc cell number, rep 1: 4.61e5; Kc cell number, rep 2: 5.31e5; S2R+ cell number, rep 1: 5.39e5; S2R+ cell number, rep 2: 6.21e5; Call: active

The results go on.
Silencing of Ric [DRSC07532] gave: Kc cell number, rep 1 = 1.65e6; Kc cell number, rep 2 = 1.66e6; S2R+ cell number, rep 1 = 1.34e6; S2R+ cell number, rep 2 = 1.57e6; inactive.
Knock-down of Eip78C [DRSC11864] resulted in: Kc cell number, rep 1 = 1.32e6; Kc cell number, rep 2 = 1.28e6; S2R+ cell number, rep 1 = 6.75e5; S2R+ cell number, rep 2 = 7.35e5; active.
Silencing of pippin [DRSC04489] resulted in: Kc cell number, rep 1 = 1.34e6; Kc cell number, rep 2 = 1.43e6; S2R+ cell number, rep 1 = 9.76e5; S2R+ cell number, rep 2 = 9.66e5; inactive.
ced-6 [DRSC07591] showed Kc cell number, rep 1 = 1.71e6; Kc cell number, rep 2 = 1.80e6; S2R+ cell number, rep 1 = 1.28e6; S2R+ cell number, rep 2 = 1.44e6; inactive.
Dis3 [DRSC16034] scored Kc cell number, rep 1 = 1.29e6; Kc cell number, rep 2 = 1.40e6; S2R+ cell number, rep 1 = 8.07e5; S2R+ cell number, rep 2 = 8.77e5; inactive.
CG32986 [DRSC02509] scored Kc cell number, rep 1 = 1.67e6; Kc cell number, rep 2 = 1.60e6; S2R+ cell number, rep 1 = 1.25e6; S2R+ cell number, rep 2 = 1.40e6; inactive.
CG15754 [DRSC19719] scored Kc cell number, rep 1 = 1.66e6; Kc cell number, rep 2 = 1.56e6; S2R+ cell number, rep 1 = 1.18e6; S2R+ cell number, rep 2 = 1.35e6; inactive.
